No constants are given. Whether binding was seen depends on the method and setting. Binding seen in cells or lysates may run through a third protein. Some results given as binding are weak or reduced against the parent protein; the word gives no strength. Tags and fused reporters may be left off the sequences shown.

Sequences of proteins named here, by UniProt entry; tags and fusion partners are left off.
UniProt P25440: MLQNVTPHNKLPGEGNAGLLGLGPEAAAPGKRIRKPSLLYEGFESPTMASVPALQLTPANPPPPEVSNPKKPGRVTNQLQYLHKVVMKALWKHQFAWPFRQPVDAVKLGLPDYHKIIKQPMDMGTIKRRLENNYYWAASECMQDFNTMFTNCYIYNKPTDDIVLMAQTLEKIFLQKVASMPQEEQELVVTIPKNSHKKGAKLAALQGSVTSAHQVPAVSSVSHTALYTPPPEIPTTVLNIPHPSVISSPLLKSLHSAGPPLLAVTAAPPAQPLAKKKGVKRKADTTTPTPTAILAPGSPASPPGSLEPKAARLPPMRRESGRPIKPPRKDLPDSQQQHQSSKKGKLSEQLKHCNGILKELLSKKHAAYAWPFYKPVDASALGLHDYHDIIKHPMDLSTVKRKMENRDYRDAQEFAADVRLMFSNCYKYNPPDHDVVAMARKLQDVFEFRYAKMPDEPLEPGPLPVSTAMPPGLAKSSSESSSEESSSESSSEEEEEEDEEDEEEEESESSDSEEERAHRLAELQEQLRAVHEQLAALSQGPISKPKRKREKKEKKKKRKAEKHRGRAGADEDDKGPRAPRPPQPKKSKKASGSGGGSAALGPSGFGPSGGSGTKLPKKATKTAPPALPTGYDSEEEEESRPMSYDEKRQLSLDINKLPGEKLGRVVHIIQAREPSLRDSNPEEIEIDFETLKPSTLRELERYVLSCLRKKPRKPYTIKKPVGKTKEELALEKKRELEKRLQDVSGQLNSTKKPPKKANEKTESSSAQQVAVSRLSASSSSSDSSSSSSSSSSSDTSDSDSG

In this experiment the target is T1, FLAG-SREBP2Nt (SREBP2 N-terminal transcriptionally active domain, amino acids 1-482) (UniProt Q12772).
T1 sequence: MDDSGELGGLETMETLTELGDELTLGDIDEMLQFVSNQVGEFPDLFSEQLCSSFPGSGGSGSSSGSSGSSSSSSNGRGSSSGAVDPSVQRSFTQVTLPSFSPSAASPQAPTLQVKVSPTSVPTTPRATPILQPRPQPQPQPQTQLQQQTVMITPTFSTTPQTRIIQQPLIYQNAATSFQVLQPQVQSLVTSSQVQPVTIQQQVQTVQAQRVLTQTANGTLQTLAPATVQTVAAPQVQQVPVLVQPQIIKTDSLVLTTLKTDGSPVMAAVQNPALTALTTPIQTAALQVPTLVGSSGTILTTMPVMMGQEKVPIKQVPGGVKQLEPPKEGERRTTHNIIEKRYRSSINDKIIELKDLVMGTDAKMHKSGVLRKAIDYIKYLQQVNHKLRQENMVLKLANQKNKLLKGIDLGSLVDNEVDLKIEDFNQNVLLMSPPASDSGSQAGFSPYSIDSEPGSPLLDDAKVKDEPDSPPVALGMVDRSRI
Briefly: co-IP.

For the substance BRD2 (from UniProt P25440 1-801), the binding entry is “binds”.
